# Some entries share one result that the patent states for a list of compounds.
# How the values were obtained:
# MRSA ATCC43300 = assay: MIC with addition of PG, LPS or D-Ala-D-Ala (Example 3); format: cell-based, Staphylococcus aureus; conditions: D-Ala-D-Ala 30 μg/ml
# Description: (§1) Regarding EGCG-C16, whether or not the antibacterial action thereof against MSSA and MRSA is inhibited by the addition of: peptidoglycan (PG) or D-Ala-D-Ala, which are each a cell wall component; or lipopolysaccharide (LPS), which is an outer membrane component, was examined. The MIC measurement was carried out in the manner described in Section (2) of Example 2.
# (§2) In Example 3, EGCG-C16 prepared in Example 1 was used as an antibacterial agent. In Comparative Example 3, unsubstituted EGCG was used as an antibacterial agent. […] Antibacterial agent solutions of EGCG-C16 and EGCG were prepared in the same manner as described in Section (2) of Example 1. Antibacterial agent solutions of the antibacterial agents other than EGCG-C16 and EGCG were prepared by dissolving them in PBS.
# (§3) As additives, PG (Peptidoglycan Staphylococcus aureus, SIGMA-ALDRICH), D-Ala-D-Ala (SIGMA-ALDRICH), and LPS (Lipopolysaccharide Salmonella, SIGMA-ALDRICH) were provided. Each of the additives was dissolved in PBS, and the resultant solution was used as an additive solution.
# (§4) Dilution series of the antibacterial agent solutions were prepared. Each of them was dispensed to a 96-well plate. Further, the additive solution was added thereto and mixed. […] Unless otherwise stated, the minimum inhibitory concentration (MIC) was calculated in the same manner as described in Section (2) of Example 2.
# MSSA ATCC25923 = assay: as above; format: cell-based, Staphylococcus aureus; conditions: D-Ala-D-Ala 30 μg/ml
# Description: as §1, §2, §3, §4
substance,measurement,setting,value
teicoplanin,increase in MIC by adding D-Ala-D-Ala,MRSA ATCC43300,≥ 16 times
same,increase in MIC by adding D-Ala-D-Ala,MSSA ATCC25923,≥ 16 times
